Measurements taken from PubChem BioAssay AID504467 (National Center for Advancing Translational Sciences (NCATS), 2011).
In all, about 330,000 compounds went through this assay and about 7,700 (2.3%) were called active. The inconclusive results got no clear call from the source; some entries with a clear call stand among them for comparison. Calls come from the whole dose curve; as a rule, active = well fitted inhibition curve with a large enough effect; inconclusive = small, poorly fitted or top-dose-only effect, or effect the other way; inactive = flat fitted curve, though single readings scatter. Potencies beside an inconclusive call are fits to weak or partial responses and may not hold up.
% is set by controls: 0 for no effect and ±100 for the full control effect; potency is the fitted concentration of half-maximal effect.

Assay: qHTS screen for small molecules that inhibit ELG1-dependent DNA repair in human embryonic kidney (HEK293T) cells expressing luciferase-tagged ELG1; note: nearly all actives have a fitted effect of over 55% in size
Conditions: HEK293T ELG1-luciferase reporter, luminescence, 16 h, DNA damage induced by 5-fluorouridine; activity change, negative = inhibition: at 46.1 µM (top of the series)
Summary of the method: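 Luminescence from the luciferase reporter, measured 30 min after ONE-Glo reagent at room temperature, was the read-out. Beforehand, 2,000 cells per well were exposed for 16 hr at 37 °C to 5-fluorouridine together with compound or vehicle.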
For COc1ccc(N(CC(=O)NCc2ccco2)S(=O)(=O)c2c(C)nn(C)c2C)cc1, the Potency was inconclusive: 6.51 µM [activator, single point].
With CCOC(=O)c1c(C)c2c(=O)[nH]cnc2n1-c1ccccc1 the Potency was inconclusive: 18.3 µM [inhibitor, partial curve].
With CCNC(=O)c1sc(-c2ccccc2)nc1C the Potency was inconclusive: 16.4 µM [activator, partial curve].
With CC(NC(=O)C1CCCN(S(=O)(=O)c2ccc(-n3cnnn3)cc2)C1)c1ccc(F)cc1 (centres undefined) the Potency was inconclusive: 18.3 µM [activator, single point].
With COc1cc(NC(=O)c2ccco2)c(OC)cc1NC(=O)CCC(=O)Nc1cc(C)ccc1C the Potency was inconclusive: 23.1 µM [inhibitor, partial curve, poor fit].
In the case of CCn1c(SCC(=O)N2CCCc3ccccc32)nc2ccccc2c1=O, the Potency is reported as inconclusive: 22.4 µM [inhibitor, single point].
In the case of COc1ccc(C)cc1S(=O)(=O)NCC(c1ccco1)N1CCc2ccccc2C1 (centres undefined), the “activity change, negative = inhibition” value is reported as inactive: 0.944%.
In the case of Cc1ccc(S(=O)(=O)N(C)c2ccc(C(=O)Nc3ccccn3)cc2)cc1, the Potency is reported as inconclusive: 23.1 µM [inhibitor, partial curve, poor fit].
For O=C(CSc1ccc(-c2ccco2)nn1)NCCc1ccccc1, the “activity change, negative = inhibition” value was inactive: 0%.
With CCOc1ccc(C(=O)Nc2cc3c(cc2N2CCCC2)n(CC)c(=O)n3CC)cc1OCC the Potency was inconclusive: 6.51 µM [inhibitor, partial curve].
With CCOc1ccc(C2=Nn3cnnc3SC2)cc1 the Potency was inconclusive: 4.61 µM [activator, partial curve].
In the case of CC(=O)c1ccc(N2CCN(c3ncccn3)CC2)cc1, the Potency is reported as inconclusive: 20.6 µM [activator, partial curve].
With O=C(Nc1ccccc1-c1nc2ccccc2[nH]1)c1ccc(N2C(=O)CCC2=O)cc1 the Potency was active: 1.83 µM.
For N#CC1=C(N)Oc2cc(N)ccc2C1c1ccsc1 (centres undefined), the “activity change, negative = inhibition” value was inactive: 0.0409%.
With CC1=CC(C)C2(CO)COC(c3cccnc3)C1C2C (centres undefined) the “activity change, negative = inhibition” value was inactive: -1.64%.
For CCN(CC)CCN1C(=O)Cn2c(C)c(C)c3cccc1c32, the Potency was “inactive”.
In the case of Cc1cc(Cl)c2oc(C(=O)N(C)CCCN3CCOCC3)c(C)c2c1, the Potency is reported as inconclusive: 25.9 µM [inhibitor, partial curve].
In the case of CC(=O)N(C)c1ccc(NC(=S)Nc2ccccc2)cc1, the Potency is reported as inconclusive: 29.1 µM [activator, single point].
For O=C(O)c1cccc(NC2=C(N3CCOCC3)C(=O)c3ccccc3C2=O)c1, the Potency was inconclusive: 29.1 µM [activator, single point].
